No constants are given. Whether binding was seen depends on the method and setting. Binding seen in cells or lysates may run through a third protein. These calls come from enrichment with a bait or labelling near it, and not all partners need be listed. For part of these data: A no says only that the protein was not detected with the bait. For part of these data: Sequences can lack the tags named with a protein.
Tests used:
Experiment in all cases: affinity purification with mass spectrometry; tandem affinity purification of SFB-tagged bait from stable HEK293T lines: lysis in NETN buffer (100 mM NaCl, 1 mM EDTA, 20 mM Tris HCl, 0.5% NP-40), streptavidin beads, elution with biotin, S-protein agarose, 4 °C; MS, hits filtered by SAINT (HCIP)
[1] = target: control protein ERK5 (UniProt Q13164)
[2] = target: T1, C-terminal SFB-tagged DHPS (human) (UniProt P49366)
T1 sequence: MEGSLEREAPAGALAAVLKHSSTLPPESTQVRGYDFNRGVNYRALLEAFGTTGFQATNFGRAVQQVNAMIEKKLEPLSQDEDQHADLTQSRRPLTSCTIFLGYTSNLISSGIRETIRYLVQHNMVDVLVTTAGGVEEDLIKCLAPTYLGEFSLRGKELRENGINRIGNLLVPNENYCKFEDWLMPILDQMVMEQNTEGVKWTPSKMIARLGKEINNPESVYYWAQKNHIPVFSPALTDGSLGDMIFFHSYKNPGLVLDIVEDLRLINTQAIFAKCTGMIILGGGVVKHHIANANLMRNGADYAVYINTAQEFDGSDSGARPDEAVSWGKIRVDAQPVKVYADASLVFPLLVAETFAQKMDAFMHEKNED

Amino acid sequences for entries named in this document (tags omitted).
UniProt Q13164: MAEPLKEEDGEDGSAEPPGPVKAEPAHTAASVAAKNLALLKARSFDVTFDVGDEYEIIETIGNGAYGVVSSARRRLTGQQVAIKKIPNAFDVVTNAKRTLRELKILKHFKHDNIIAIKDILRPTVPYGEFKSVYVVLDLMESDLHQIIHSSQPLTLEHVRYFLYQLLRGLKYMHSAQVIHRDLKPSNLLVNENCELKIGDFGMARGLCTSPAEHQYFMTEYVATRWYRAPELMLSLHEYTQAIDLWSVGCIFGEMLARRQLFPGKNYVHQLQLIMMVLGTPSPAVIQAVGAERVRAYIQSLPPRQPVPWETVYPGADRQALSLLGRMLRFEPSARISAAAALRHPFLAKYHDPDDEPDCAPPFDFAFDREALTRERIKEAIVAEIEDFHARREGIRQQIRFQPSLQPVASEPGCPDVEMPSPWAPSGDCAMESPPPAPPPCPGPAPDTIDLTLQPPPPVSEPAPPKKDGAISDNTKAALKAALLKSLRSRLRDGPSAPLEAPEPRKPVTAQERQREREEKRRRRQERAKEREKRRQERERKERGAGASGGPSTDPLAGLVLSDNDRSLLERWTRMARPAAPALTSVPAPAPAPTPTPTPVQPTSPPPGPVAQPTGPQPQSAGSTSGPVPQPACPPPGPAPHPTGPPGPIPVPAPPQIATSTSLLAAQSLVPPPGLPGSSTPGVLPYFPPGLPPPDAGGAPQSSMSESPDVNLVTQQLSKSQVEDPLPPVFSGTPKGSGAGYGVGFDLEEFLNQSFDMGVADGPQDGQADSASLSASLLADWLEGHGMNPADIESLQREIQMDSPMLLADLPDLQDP
UniProt Q15418: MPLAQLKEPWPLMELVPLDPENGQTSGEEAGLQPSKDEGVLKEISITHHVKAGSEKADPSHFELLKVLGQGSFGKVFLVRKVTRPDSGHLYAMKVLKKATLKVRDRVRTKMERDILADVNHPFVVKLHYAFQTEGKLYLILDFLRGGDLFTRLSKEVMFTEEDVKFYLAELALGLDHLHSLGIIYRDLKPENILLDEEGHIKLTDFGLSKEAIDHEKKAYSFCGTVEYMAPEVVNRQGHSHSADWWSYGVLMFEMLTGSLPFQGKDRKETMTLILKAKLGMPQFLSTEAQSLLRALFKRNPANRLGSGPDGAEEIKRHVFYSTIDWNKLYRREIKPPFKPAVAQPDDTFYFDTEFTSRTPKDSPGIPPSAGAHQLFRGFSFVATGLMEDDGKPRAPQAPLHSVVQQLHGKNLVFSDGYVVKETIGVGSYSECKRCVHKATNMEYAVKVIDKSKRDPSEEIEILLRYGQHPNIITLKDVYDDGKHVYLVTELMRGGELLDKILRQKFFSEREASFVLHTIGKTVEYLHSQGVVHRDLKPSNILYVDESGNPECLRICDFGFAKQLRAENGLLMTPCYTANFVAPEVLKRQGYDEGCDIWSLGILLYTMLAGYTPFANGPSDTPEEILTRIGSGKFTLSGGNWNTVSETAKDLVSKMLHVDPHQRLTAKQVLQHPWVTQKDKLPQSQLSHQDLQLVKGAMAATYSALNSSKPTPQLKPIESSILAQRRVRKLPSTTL
UniProt P27361: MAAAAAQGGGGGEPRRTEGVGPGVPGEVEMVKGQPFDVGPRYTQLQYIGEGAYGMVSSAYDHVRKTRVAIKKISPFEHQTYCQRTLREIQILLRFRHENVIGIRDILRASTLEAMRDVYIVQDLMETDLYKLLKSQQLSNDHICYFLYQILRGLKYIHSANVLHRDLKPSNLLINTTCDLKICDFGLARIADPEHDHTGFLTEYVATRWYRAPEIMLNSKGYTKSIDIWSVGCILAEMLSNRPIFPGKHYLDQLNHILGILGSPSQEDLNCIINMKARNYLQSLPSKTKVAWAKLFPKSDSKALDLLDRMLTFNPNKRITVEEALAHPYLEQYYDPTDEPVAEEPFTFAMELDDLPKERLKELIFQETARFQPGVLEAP

[3] = target: T2, N-terminal SFB-tagged DHPS (human) (UniProt P49366)
T2 sequence: T1 sequence

Row | binding [1] | binding [2] | binding [3] | Substance
1 | no binding |  |  | RPS6KA1 (from UniProt Q15418 1-735)
2 |  | binds | binds | endogenous ERK1 (from UniProt P27361 1-379) (enzyme)

Source: publication PMC7522278
